The source of these data is publication PMC10873312.

Chains of the proteins cited; added tags and fusions are not shown.
UniProt P27708: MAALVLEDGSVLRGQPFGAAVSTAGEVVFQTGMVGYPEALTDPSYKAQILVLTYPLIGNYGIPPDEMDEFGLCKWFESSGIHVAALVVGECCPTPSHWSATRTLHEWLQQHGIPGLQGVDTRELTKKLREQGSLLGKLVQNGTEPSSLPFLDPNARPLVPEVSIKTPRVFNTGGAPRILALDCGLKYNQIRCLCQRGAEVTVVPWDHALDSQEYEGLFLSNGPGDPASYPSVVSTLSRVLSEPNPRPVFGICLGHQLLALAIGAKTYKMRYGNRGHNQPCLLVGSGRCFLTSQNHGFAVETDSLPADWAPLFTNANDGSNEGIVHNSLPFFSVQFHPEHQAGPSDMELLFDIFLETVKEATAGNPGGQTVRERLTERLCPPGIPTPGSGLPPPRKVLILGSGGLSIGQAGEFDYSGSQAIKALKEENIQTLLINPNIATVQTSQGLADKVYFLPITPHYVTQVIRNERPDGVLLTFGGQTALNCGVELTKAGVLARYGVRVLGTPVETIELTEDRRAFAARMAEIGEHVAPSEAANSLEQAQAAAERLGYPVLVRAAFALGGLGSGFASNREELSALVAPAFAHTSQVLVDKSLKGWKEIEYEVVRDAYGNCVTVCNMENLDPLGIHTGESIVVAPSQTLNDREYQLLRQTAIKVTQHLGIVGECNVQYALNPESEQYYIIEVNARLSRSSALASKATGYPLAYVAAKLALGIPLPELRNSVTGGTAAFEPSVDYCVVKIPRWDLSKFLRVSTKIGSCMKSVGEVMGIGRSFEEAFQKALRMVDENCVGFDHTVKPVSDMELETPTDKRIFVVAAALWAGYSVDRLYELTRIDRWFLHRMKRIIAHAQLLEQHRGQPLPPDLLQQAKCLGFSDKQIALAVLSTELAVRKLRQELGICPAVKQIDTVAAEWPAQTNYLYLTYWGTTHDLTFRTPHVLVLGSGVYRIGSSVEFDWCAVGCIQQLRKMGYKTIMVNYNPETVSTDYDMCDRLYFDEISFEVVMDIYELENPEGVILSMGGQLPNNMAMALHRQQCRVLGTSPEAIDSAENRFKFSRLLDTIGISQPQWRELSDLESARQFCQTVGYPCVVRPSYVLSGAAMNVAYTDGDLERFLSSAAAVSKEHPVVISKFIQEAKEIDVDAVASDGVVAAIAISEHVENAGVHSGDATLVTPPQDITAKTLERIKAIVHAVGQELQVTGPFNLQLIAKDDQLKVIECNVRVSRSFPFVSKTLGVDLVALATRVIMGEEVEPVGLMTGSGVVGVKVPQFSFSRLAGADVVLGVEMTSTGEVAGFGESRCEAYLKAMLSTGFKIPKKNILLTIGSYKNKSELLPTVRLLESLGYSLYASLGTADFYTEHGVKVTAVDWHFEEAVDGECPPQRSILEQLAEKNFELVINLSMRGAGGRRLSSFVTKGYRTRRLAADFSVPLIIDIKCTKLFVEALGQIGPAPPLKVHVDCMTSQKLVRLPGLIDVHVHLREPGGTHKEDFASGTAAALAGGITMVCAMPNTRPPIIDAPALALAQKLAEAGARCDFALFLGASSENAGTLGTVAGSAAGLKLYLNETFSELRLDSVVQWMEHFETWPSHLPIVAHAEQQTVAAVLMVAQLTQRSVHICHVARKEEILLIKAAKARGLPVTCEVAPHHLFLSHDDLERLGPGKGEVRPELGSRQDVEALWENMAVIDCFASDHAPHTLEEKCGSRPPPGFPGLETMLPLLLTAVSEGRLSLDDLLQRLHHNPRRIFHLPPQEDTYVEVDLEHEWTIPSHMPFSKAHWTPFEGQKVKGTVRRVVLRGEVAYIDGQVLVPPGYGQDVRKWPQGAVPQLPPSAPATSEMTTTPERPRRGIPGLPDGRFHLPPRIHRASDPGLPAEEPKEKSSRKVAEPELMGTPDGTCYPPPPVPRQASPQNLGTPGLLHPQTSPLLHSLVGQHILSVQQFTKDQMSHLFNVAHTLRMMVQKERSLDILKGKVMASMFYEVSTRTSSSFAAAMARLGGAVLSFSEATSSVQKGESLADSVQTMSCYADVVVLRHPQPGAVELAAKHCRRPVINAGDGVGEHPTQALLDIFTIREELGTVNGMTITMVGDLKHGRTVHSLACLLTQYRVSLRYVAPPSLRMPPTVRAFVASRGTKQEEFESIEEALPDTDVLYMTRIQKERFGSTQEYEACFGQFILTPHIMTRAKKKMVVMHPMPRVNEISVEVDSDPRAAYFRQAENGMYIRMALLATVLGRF
UniProt Q00534: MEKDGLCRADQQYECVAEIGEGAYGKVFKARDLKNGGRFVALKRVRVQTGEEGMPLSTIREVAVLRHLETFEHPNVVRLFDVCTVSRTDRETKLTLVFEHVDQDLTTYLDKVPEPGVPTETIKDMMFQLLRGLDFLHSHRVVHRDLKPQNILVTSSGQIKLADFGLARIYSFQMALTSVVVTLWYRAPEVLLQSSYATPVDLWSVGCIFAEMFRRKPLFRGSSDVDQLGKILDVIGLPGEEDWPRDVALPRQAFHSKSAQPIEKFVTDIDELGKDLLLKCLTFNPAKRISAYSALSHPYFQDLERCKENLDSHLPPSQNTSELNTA
UniProt Q9QR71: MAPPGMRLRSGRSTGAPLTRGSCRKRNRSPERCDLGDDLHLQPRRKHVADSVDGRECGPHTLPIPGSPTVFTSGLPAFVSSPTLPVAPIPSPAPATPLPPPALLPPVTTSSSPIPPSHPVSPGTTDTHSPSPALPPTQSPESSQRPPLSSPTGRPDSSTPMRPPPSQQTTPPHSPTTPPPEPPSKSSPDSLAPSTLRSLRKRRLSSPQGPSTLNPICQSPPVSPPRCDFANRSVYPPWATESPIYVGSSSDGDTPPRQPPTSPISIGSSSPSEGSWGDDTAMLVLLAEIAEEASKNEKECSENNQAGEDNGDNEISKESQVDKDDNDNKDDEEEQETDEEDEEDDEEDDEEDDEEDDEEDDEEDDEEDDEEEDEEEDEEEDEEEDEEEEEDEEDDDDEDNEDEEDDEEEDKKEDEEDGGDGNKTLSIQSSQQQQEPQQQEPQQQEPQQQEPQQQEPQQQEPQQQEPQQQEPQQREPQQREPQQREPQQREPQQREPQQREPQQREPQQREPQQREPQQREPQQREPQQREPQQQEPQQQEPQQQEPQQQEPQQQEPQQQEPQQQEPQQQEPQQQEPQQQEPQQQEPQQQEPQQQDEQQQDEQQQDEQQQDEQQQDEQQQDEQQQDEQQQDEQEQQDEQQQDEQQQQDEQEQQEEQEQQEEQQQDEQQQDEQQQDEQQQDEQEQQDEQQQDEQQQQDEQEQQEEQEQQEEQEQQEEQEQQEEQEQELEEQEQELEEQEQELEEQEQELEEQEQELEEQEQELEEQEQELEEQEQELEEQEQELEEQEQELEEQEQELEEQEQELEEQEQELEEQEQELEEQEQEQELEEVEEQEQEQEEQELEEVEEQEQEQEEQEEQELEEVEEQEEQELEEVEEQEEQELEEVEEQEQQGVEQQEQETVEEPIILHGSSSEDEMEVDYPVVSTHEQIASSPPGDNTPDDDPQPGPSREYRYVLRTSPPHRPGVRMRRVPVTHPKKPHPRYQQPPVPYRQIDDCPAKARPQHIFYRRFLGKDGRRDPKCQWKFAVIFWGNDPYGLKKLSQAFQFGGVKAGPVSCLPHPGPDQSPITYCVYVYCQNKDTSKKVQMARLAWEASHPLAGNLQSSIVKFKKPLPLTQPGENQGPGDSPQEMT

The target of assay [1] is Flag-CAD (Carbamoyl-phosphate synthetase 2, aspartate transcarbamoylase, and dihydroorotase) (UniProt P27708). The assay is described as follows: co-IP; 293T cells transfected with both expression plasmids for 48 h; whole cell lysates (Triton X-100 or NP40 buffer) precipitated with anti-Flag; immunoblotting.
For assay [2], the target named is Flag-CDK6 (Cyclin-dependent kinase 6) (UniProt Q00534). The description is as above.
For assay [3] the target is unchanged. The assay is described as follows: co-IP; 293T cells transfected with Flag-CDK6 with or without vCyclin for 48 h; whole cell lysates precipitated with anti-Flag (CDK6); endogenous CAD detected by immunoblotting.
Assay [4] addresses Flag-CAD (Carbamoyl-phosphate synthetase 2, aspartate transcarbamoylase, and dihydroorotase) (UniProt P27708). In words: co-IP; 293T cells transfected with both expression plasmids for 48 h; whole cell lysates (Triton X-100 or NP40 buffer) precipitated with anti-Flag; immunoblotting. The source holds these as a separate data set.
In assay [5] the target is endogenous CAD (human (endogenous in 293T and BC-3)) (UniProt P27708). The assay is described as follows: co-IP; endogenous CAD and virally expressed vCyclin; 293T cells infected with KSHV (MOI = 5) for 48 h, whole cell lysates precipitated with IgG or anti-CAD; also the PEL cell line BC-3 harboring KSHV; immunoblotting.

Like-named read-outs stand apart in the source and are kept apart here. These are yes or no findings as the source states them, for the method shown. In cells and extracts the contact can be indirect. Some entries that bind do so weakly or less than the wild type. For some assays here: Tags and fused reporters may be left off the sequences shown.

Consider “Myc-LANA (KSHV latent protein) (from UniProt Q9QR71 1-1129)”, for which, in assay [1], the binding result is reported as “no binding”.
“V5-CAD (from UniProt P27708 1-2225) (enzyme)”: the binding result in assay [2] is “binds”.
As for “endogenous CAD (from UniProt P27708 1-2225) (enzyme)”, in assay [3], the binding entry is recorded as “binds”.

B1: Myc-vCyclin (KSHV vCyclin) (protein, UniProt Q77Q36 1-257)
chain: MATANNPPSGLLDPTLCEDRIFYNILEIEPRFLTSDSVFGTFQQSLTSHMRKLLGTWMFSVCQEYNLEPNVVALALNLLDRLLLIKQVSKEHFQKTGSACLLVASKLRSLTPISTSSLCYAAADSFSRQELIDQEKELLEKLAWRTEAVLATDVTSFLLLKLLGGSQHLDFWHHEVNTLITKALVDPKTGSLPASIISAAGCALLVPANVIPQDTHSGGVVPQLASILGCDVSVLQAAVEQILTSVSDFDLRILDSY
In the case of B1, the binding entry in assay [4] is “binds”.

B2: virally expressed vCyclin (protein, UniProt Q77Q36 1-257)
chain: B1 chain
As for B2, the binding entry in assay [5] was “binds”.
